The target in this assay is T1, GFP-Wdr24 (Drosophila Wdr24, CG7609) (Drosophila melanogaster) (UniProt Q9XZ25).
T1 sequence: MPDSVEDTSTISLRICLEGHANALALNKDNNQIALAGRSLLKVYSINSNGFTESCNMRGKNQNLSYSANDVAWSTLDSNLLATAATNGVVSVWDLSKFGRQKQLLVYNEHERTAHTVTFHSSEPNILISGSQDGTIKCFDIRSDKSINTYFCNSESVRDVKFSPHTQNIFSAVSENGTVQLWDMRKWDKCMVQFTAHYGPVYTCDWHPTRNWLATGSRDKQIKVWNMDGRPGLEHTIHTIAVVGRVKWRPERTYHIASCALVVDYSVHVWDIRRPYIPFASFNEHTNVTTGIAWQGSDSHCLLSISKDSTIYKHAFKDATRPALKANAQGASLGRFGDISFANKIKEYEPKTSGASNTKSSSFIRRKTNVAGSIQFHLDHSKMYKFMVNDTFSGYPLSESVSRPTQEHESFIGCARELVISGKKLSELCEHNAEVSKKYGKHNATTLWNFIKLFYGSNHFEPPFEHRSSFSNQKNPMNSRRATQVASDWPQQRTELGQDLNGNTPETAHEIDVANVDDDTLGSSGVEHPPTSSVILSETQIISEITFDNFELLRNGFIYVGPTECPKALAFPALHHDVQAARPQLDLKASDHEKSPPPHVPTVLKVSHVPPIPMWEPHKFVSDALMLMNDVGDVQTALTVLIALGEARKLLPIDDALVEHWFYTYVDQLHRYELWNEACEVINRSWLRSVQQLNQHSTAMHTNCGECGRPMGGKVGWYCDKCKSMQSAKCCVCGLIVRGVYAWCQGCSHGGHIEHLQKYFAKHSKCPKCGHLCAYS
The assay is described as follows: co-IP; S2 cells co-transfected with the tagged proteins; lysates immunoprecipitated with GFP antibody (2 ug, protein G agarose and protein A agarose); Western blot with HA, V5 and GFP antibodies. For orientation: Immunoblotting shows a protein as a band on a membrane.

The text below walks through data of PMC4864241.

No constants are given. Whether binding was seen depends on the method and setting. Binding seen in cells or lysates may run through a third protein. Some results given as binding are weak or reduced against the parent protein; the word gives no strength. Tags and fused reporters may be left off the sequences shown.

B1: HA-Mio (protein, UniProt Q9VQ89 1-867)
chain: MSGNTHGLSWFPHFPDKFVSWGQEIHLYEVRRKDDHSQKSRLPYISVNYLANESRYQYARCVAASYHSDQPIIAVGLADGKVGICNFRDTYDSSWEYTPRQQRMCTCLAWNELDANILAIGHDRHRNDTCITIWDIERGVPKETANFFGVGESANSICWDRNHRTVIAGMSQKMIKLFDLRQSNATCQSIQTKTVQGLSVSPNGNYLCSYVDSVITLWDPRNIKSPLRQIQSSKNHLQIAWCPTRTSLLSSLQRDSSYITLYDIRSVDTDNSGEIYHVKRQISPFPARYQHSGKFSFVNCLSWHSRDFERALLLADALNILDFRLPATLHTAHSNRRKLPLLMQRPLYTPASPTSTAATPTQQQPTSSCSTNSGSSLDFSTPGGSPFNVDLLKPELFELDLVDETRQRALEDYGIKPDNKRFGELHLTPYLRNVWSTLNNVYSEDRLTGLKATLGINLGHTSEALMASSRIESQVLQWPEGINNSNKLICYRSEQRDLALQLCGWAFEQELDRFIDQLYANKEYSRAAMICVFHLKIFHACNILSSAADNMRDPSMYRITVIALSSFNADRCSSTWRNQRSSANMQIHDPHLRAVFSFLTMEKDNFDAVLKEEGVSLSDRMAFACKYLSETKLADYVAQQIQAAIDGGDLNGLLLTGESQDGIDILQSYMDTSFDVQTVALVAINYFRQELFEDKRIQYWIASYLDHLNSWGLWEKRAELDIKIESIRPSSRSSRTVFLSCNFCGKSVSNALLDEPRPRSTTTSTNRLSSCPSCRKPLPRCSLCLMHMGTMVNMSNGETPTTTPDVPGWQTKPFSKWFSWCQTCRHGGHTEHIMQWFKQNSECPVSSCNCRCFDMDGTKPNTLRDIS
Turning to B1, the binding result is given as “binds”.

B2: HA-Seh1 (protein, UniProt Q7K2X8 1-354)
chain: MFDVEPIIADHKDVIHDVVFDYYGRRMATCSSDQTVKIWDEDGQGKWNVTSSWKAHSGSIWRVSWAHPEFGQVVATCSFDRTASVWEEVIGEKVSSTNTPTRRWVRRTTLVDSRTSVTDVEFAPKYLGLLLATASADGIIRIYEAPDIMNLSQWPVQHEISNKLPLSCLSWNTSTYMVTQLLAAGSDEAATPTGKVFLFAYSENSRKCVKIDTVNDITDPVTDVAFAPNAGRTFHMLAVASKDLYIVNLRGVTDATDISKLDIQTIKFSEHNCPVWRVCWNMLATMLISTGDDGCVRLWRMNYNRQWRCAAVLKAEGSGPTYEPAPPTPTLATTASATAKFYKKGTIGNQVPWH
B2: the binding entry is listed as “binds”.

B3: V5-Nprl3 (protein, UniProt Q9VUB4 1-610)
chain: METNVNPLAVILVYFDSKGDRLLYRYPYQTLGQTEVANDEQRKSRKRNPYAVANTDDLLQTPTHLGAAKSQGQLQGFADEVLSALFAVKPQLCNQKFELKLNDVRFVSHPTLIPQKEQRSGPMAKQQMLINIVFALHAQASYSIVKCYHELSKRLGLALKFEEQRSGYLTEQTAQMARTHDEQQQQPLERTLELIAERCSLAQALRSIFHDLCTTGLLSTSLNHNLTLCFCLPAKAHQLHKKGSMVDPETIDRCLRALKPYHGMLLLVDFAELLDCVPPTGARMLWQLVDVYDPLISLQSMSSNADLSIEHVYKLVSHLVYWAKATIIYPLCETNVYVIAPDAPLHTKSHLVEKFSARFAGMSLFEVISDFSLPTSIGHLTTPLQQPARQGILAQMVIWMLQHHLLMQLHTYVQFMPSEDEFGDSASCSNHLRDAISDEEGDQEPDADELHGSMLSMSSHPLPVPAVLVGGHRREASEDHSSLASDNIAVQPSSSHKSNFSITASMSTDNCDSLDSMEDEQKLKELLQVFSDADRAAIRRIPASANVDDLSLLVKLYQMGYFKSEHHLEEIMYFENLRRSQLLQLLDKFRDVLIIYETEDPAIASMYNTK
On to B3, for which the binding entry is on record as “binds”.
